This is an account of results in publication PMC7320018.

Chains of the proteins cited; added tags and fusions are not shown.
UniProt P53350: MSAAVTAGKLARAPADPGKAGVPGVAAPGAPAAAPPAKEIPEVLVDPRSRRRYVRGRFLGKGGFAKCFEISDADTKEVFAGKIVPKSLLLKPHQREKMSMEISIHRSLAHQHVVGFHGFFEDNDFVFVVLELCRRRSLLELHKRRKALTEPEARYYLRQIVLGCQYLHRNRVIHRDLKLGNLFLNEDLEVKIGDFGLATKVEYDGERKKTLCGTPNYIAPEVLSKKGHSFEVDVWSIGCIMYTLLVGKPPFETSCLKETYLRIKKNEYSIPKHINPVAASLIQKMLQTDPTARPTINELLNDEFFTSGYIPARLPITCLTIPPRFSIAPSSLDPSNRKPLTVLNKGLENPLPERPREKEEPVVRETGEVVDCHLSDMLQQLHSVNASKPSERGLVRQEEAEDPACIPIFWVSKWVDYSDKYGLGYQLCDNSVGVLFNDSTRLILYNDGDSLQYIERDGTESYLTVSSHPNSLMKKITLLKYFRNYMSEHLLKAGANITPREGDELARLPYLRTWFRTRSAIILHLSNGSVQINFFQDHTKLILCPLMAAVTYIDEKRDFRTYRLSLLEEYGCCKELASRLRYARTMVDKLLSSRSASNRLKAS

Like-named read-outs stand apart in the source and are kept apart here. No constants are given. Whether binding was seen depends on the method and setting. In cells and extracts the contact can be indirect. These calls come from enrichment with a bait or labelling near it, and not all partners need be listed. Sequences can lack the tags named with a protein.

Assay [1] concerns the target T1, TBC1 Domain Family Member 9, tagged bait (3xFLAG or BirA*-FLAG construct, not told which) (human) (UniProt Q6ZT07).
T1 sequence: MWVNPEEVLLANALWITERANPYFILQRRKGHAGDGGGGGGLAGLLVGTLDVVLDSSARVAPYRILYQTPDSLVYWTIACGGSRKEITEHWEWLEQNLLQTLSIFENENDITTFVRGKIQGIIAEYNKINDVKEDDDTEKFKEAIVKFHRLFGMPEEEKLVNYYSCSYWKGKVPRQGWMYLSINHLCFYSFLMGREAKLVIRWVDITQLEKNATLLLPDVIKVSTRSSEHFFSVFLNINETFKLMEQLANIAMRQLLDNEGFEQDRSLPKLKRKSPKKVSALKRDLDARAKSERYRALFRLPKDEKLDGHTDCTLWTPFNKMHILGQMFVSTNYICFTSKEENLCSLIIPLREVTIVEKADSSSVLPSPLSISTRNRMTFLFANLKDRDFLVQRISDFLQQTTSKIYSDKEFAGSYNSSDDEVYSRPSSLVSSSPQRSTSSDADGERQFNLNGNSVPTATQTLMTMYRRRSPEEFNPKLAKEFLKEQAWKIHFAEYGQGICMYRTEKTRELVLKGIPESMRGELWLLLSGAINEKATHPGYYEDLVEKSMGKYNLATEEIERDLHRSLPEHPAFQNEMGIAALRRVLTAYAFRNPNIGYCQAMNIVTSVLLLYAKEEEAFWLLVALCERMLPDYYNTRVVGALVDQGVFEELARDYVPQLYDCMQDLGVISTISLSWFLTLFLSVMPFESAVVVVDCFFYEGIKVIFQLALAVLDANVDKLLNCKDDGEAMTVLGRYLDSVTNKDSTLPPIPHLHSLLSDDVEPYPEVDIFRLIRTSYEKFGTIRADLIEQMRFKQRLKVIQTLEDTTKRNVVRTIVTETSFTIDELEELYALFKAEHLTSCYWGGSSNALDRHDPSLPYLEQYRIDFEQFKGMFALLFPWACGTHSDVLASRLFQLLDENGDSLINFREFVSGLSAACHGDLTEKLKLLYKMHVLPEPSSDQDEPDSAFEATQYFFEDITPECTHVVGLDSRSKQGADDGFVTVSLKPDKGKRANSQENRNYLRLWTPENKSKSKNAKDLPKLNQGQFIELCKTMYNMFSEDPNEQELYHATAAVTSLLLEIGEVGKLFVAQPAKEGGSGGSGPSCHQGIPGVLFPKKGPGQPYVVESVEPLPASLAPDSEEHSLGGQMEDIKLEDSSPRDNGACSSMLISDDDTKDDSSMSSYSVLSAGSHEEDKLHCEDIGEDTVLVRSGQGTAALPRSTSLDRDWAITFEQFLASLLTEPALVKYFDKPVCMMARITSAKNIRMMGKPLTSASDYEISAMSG
Kind of assay: affinity purification with mass spectrometry + proximity labelling; interactor named in the discussion from the AP-MS and BioID screens in HEK293 Flp-In T-REx; which of the two screens gave it is not told.

Assay [2] concerns the target T2, Milk Fat Globule-EGF Factor 8 Protein fused to BirA*-FLAG (human) (UniProt Q08431).
T2 sequence: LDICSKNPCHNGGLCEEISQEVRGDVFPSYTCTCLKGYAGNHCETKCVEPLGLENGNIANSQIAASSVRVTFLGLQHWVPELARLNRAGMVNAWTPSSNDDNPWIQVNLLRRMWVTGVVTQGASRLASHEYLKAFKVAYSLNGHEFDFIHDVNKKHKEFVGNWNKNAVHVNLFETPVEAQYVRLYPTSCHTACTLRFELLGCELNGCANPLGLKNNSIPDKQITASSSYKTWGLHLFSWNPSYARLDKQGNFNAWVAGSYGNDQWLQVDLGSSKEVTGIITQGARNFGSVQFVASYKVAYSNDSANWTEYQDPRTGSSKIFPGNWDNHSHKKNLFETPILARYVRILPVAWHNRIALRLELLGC
Kind of assay: proximity labelling; BioID: BirA*-FLAG bait induced with tetracycline and 50 µM biotin 24 h in HEK293 Flp-In T-REx; RIPA lysis; streptavidin sepharose 3 h at 4 °C; on-bead trypsin, LC-MS/MS; SAINTexpress BFDR ≤ 0.01 against BirA*-FLAG controls (GFP, NLS, alone), then Crapome filter.

The target of assay [3] is T3, TBC1 Domain Family Member 9 fused to BirA*-FLAG (human) (UniProt Q6ZT07).
T3 sequence: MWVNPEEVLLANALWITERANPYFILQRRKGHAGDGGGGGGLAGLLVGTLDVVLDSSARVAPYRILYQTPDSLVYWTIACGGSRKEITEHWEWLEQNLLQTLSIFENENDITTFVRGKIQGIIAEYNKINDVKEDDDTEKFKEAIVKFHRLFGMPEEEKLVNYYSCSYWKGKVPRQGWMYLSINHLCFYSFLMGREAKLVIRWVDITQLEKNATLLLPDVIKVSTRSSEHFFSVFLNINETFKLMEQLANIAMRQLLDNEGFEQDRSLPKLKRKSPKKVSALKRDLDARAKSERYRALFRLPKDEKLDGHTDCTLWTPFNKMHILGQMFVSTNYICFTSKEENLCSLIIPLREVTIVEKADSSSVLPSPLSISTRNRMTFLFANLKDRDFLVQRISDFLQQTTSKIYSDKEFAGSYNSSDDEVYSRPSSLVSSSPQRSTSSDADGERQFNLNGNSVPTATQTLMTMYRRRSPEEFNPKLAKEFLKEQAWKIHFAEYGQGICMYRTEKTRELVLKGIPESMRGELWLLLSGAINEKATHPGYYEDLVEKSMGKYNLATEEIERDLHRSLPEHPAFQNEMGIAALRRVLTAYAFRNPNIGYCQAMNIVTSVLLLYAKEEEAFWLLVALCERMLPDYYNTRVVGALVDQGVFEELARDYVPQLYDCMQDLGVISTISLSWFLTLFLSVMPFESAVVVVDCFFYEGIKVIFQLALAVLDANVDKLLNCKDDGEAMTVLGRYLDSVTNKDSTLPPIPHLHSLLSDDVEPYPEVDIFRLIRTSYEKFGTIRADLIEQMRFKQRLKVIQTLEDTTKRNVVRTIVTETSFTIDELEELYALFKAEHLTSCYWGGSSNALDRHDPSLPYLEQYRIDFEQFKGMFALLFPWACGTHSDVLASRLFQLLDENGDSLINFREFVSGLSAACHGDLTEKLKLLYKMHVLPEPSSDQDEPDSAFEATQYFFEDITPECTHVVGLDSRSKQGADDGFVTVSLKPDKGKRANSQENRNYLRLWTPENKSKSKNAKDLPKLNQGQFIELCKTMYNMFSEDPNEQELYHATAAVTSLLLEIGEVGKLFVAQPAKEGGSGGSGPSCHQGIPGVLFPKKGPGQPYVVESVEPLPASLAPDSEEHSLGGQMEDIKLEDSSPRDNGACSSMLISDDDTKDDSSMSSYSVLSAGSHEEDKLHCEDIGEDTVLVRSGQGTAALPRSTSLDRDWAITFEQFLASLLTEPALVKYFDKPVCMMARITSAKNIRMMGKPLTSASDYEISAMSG
Described as above.

Assay [4] has as its target T2, Milk Fat Globule-EGF Factor 8 Protein fused to BirA*-FLAG (human). Described as above. The source holds these as a separate data set.
For assay [5], the target named is T4, TBC1 Domain Family Member 9 with 3xFLAG (human) (UniProt Q6ZT07).
T4 sequence: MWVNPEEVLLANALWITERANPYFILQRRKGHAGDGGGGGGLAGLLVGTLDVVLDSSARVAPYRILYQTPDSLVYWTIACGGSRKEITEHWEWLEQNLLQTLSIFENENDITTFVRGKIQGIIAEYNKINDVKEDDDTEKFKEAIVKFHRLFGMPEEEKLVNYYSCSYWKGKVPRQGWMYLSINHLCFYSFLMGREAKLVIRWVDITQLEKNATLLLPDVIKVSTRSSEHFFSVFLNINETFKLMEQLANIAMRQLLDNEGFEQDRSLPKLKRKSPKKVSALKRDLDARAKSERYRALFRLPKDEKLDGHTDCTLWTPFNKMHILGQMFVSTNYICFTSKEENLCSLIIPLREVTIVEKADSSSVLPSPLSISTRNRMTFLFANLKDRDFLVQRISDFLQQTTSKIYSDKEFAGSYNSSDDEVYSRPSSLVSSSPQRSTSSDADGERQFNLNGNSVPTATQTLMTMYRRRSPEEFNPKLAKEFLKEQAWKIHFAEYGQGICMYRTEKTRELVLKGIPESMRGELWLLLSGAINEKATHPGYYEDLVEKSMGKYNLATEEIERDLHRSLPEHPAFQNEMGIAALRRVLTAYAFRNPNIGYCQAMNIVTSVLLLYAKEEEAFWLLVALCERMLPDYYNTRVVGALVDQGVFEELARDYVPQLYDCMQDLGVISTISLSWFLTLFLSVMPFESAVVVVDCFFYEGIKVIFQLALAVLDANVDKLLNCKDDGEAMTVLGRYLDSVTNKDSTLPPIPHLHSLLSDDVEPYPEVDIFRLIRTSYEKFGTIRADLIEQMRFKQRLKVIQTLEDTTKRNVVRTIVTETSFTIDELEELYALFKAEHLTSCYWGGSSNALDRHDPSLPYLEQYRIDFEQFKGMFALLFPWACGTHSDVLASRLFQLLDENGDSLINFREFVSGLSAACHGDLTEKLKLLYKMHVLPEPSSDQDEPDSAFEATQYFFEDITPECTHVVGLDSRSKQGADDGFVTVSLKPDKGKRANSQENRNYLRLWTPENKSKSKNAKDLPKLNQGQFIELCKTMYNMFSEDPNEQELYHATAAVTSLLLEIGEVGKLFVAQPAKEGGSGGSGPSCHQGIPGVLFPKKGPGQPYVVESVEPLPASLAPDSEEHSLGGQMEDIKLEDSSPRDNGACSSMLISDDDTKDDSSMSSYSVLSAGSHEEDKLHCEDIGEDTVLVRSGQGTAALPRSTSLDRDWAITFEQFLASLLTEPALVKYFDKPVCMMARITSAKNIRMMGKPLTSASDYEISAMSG
Kind of assay: affinity purification with mass spectrometry; 3xFLAG bait induced 24 h with tetracycline in HEK293 Flp-In T-REx; lysis in 0.1% NP-40, 50 mM HEPES-NaOH pH 8.0, 100 mM KCl, 2 mM EDTA, 10% glycerol; anti-FLAG M2 magnetic beads 2 h at 4 °C; on-bead trypsin, LC-MS/MS; SAINTexpress BFDR ≤ 0.01 against untagged parental cells, then Crapome filter.

Take “polo-like kinase 1 (from UniProt P53350 1-603)”: the binding entry in assay [1] is “binds”.

Regarding DXDR (human (endogenous in HEK293)), the binding result in assay [2] is “binds”.

B1: ABHD16A (protein, UniProt O95870 1-558)
chain: MAKLLSCVLGPRLYKIYRERDSERAPASVPETPTAVTAPHSSSWDTYYQPRALEKHADSILALASVFWSISYYSSPFAFFYLYRKGYLSLSKVVPFSHYAGTLLLLLAGVACLRGIGRWTNPQYRQFITILEATHRNQSSENKRQLANYNFDFRSWPVDFHWEEPSSRKESRGGPSRRGVALLRPEPLHRGTADTLLNRVKKLPCQITSYLVAHTLGRRMLYPGSVYLLQKALMPVLLQGQARLVEECNGRRAKLLACDGNEIDTMFVDRRGTAEPQGQKLVICCEGNAGFYEVGCVSTPLEAGYSVLGWNHPGFAGSTGVPFPQNEANAMDVVVQFAIHRLGFQPQDIIIYAWSIGGFTATWAAMSYPDVSAMILDASFDDLVPLALKVMPDSWRGLVTRTVRQHLNLNNAEQLCRYQGPVLLIRRTKDEIITTTVPEDIMSNRGNDLLLKLLQHRYPRVMAEEGLRVVRQWLEASSQLEEASIYSRWEVEEDWCLSVLRSYQAEHGPDFPWSVGEDMSADGRRQLALFLARKHLHNFEATHCTPLPAQNFQMPWHL
B1: the binding entry in assay [3] was “binds”.

B2: TRIM13 (protein, UniProt O60858 1-407)
chain: MELLEEDLTCPICCSLFDDPRVLPCSHNFCKKCLEGILEGSVRNSLWRPAPFKCPTCRKETSATGINSLQVNYSLKGIVEKYNKIKISPKMPVCKGHLGQPLNIFCLTDMQLICGICATRGEHTKHVFCSIEDAYAQERDAFESLFQSFETWRRGDALSRLDTLETSKRKSLQLLTKDSDKVKEFFEKLQHTLDQKKNEILSDFETMKLAVMQAYDPEINKLNTILQEQRMAFNIAEAFKDVSEPIVFLQQMQEFREKIKVIKETPLPPSNLPASPLMKNFDTSQWEDIKLVDVDKLSLPQDTGTFISKIPWSFYKLFLLILLLGLVIVFGPTMFLEWSLFDDLATWKGCLSNFSSYLTKTADFIEQSVFYWEQVTDGFFIFNERFKNFTLVVLNNVAEFVCKYKLL
B2: in assay [4], the binding result is “binds”.

B3: ADP Ribosylation Factor Like GTPase 8A (protein, UniProt Q96BM9 1-186)
chain: MIALFNKLLDWFKALFWKEEMELTLVGLQYSGKTTFVNVIASGQFNEDMIPTVGFNMRKITKGNVTIKLWDIGGQPRFRSMWERYCRGVSAIVYMVDAADQEKIEASKNELHNLLDKPQLQGIPVLVLGNKRDLPGALDEKELIEKMNLSAIQDREICCYSISCKEKDNIDITLQWLIQHSKSRRS
Take B3: the binding entry in assay [5] was “binds”.
